# Test results: patent publication US20260365655A1, “NEW USE OF JANUS KINASE (JAK)-DEGRADING AGENT BASED ON PROTEOLYSIS TARGETING CHIMERA (PROTAC)” (SHANGHAI SKIN DISEASE HOSPITAL, priority 2022, published 2026)
# Tested on: mouse ear eczema model (spleen)
# Assay: Mouse ear eczema model: body weight, spleen weight and spleen index
# Type: in vivo, BALB/c mice
# Conditions: group mean; day 11
# Source text: (1) Preparation method of a JAK-PROTAC cream: the same as in Example 1.
# (2) Positive therapeutic drug: a 0.050% dexamethasone acetate cream (manufacturer: Shanghai Skin Disease Hospital).
# (3) Blank matrix: a matrix component produced after the active ingredient JAK-PROTAC was removed from the cream.
# (4) Molding agent: solution of calcipotriol in ethanol (manufacturer: MACKLIN).
# (1) The mice were randomly divided into a blank control group (6 mice) (Control), a model group (6 mice) (Model), a positive drug group (6 mice) (Positive), a Compound 1-treating group (0.15% JAK-PROTAC cream 1 for external use) (6 mice) (Treat 1), and a Compound 2-treating group (0.15% JAK-PROTAC cream 2 for external use) (6 mice) (Treat 2).
# (2) Molding was conducted in the following manner: […]
# After the mice were sacrificed, a spleen tissue was collected, dried with a filter paper to remove blood stains on a surface, and weighed for a wet weight. A spleen index was calculated as follows: spleen index=10,000×spleen weight (g)/body weight (g).
# (2) A body weight and thicknesses of two ears of each mouse were recorded daily.
# (3) After the experiment was completed, a spleen index of each mouse was calculated. […]
row,Structure (SMILES),"Body weight, mean value"
1,N#CC[C@H](C1CCCC1)n1cc(-c2nc(Nc3ccc(C(=O)NCCCCNc4cccc5c4C(=O)N(C4CCC(=O)NC4=O)C5=O)cc3)nc3[nH]ccc23)cn1 (some centres unmarked) [Compound 1],20.7667 g
2,CCS(=O)(=O)N1CC(CC#N)(n2cc(-c3nc(Nc4ccc(C(=O)NCCCCNc5cccc6c5C(=O)N(C5CCC(=O)NC5=O)C6=O)cc4)nc4[nH]ccc34)cn2)C1 (centres unmarked) [Compound 2],19.7333 g
